Data: publication doi:10.1101/2023.01.22.525054
Results are given in words; binding and its absence hold for the method and conditions named. In cells and extracts the contact can be indirect. Some entries that bind do so weakly or less than the wild type. Where a sequence is shown, tags or fusion partners need not be part of it.

What was measured:
Assay in all cases: co-IP
[1] = biological target: T1, FLAG-FAM111B wild-type (WT) (human) (UniProt Q6SJ93)
T1 sequence: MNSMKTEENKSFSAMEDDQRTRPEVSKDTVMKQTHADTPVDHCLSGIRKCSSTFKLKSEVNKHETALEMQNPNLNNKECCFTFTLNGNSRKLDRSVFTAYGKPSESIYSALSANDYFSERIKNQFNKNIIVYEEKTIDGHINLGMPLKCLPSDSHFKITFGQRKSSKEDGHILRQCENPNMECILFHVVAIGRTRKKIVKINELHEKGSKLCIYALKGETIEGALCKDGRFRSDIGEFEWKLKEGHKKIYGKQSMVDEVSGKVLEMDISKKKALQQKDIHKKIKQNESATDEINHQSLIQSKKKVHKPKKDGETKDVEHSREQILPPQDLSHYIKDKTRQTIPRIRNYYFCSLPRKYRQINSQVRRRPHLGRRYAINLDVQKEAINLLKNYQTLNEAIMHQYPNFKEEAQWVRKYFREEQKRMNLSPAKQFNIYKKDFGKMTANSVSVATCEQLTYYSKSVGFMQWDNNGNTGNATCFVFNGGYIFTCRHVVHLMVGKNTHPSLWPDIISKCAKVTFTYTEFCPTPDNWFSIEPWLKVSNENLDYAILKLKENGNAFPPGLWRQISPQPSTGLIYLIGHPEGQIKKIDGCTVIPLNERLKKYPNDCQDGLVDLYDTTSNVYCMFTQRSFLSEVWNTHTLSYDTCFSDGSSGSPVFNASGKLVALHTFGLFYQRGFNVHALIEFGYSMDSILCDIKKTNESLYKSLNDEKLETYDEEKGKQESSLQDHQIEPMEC

[2] = biological target: T2, FLAG-FAM111B HFP mutant (Q430P, M1) (human) (UniProt Q6SJ93)
T2 sequence: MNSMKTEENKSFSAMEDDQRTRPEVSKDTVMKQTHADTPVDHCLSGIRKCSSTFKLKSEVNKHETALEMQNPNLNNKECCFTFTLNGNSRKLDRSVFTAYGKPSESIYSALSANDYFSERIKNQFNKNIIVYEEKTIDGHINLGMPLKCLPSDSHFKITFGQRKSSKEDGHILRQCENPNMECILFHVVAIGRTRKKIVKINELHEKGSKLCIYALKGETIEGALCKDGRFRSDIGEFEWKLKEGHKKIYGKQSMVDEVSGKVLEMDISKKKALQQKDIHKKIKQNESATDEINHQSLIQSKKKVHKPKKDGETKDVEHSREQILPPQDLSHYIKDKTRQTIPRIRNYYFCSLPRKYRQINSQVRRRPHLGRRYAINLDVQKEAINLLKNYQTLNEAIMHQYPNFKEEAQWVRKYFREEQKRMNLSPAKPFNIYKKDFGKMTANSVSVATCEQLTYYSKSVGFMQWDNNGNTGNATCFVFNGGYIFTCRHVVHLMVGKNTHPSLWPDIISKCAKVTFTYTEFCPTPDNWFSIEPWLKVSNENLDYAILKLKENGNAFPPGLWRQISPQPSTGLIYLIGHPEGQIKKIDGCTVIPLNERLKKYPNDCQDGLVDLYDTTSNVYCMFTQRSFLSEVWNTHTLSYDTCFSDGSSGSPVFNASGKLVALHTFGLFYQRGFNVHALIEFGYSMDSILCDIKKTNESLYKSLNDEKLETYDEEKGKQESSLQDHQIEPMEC

[3] = biological target: T3, FLAG-FAM111B protease dead (PD, H490A) (human) (UniProt Q6SJ93)
T3 sequence: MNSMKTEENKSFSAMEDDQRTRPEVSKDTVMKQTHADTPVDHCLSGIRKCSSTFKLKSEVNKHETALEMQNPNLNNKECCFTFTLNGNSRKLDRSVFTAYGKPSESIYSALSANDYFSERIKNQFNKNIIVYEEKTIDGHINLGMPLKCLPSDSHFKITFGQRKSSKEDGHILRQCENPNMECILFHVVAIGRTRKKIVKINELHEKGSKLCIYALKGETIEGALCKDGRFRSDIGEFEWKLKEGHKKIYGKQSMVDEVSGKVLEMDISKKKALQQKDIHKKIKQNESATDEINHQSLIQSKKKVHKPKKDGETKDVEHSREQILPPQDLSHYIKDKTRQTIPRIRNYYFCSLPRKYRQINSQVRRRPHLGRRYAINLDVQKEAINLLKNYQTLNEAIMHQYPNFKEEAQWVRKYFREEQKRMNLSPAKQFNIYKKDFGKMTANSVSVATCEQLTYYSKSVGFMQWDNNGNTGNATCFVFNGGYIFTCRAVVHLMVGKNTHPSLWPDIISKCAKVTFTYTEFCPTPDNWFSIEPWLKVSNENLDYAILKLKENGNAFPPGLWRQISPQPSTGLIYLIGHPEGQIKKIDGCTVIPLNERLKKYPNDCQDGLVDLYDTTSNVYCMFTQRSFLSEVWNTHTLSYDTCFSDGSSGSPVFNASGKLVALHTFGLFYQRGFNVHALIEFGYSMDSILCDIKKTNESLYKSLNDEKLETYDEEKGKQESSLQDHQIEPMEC

Measured: binding

B1: NUPL2 (protein, UniProt O15504 1-423)
chain: MAICQFFLQGRCRFGDRCWNEHPGARGAGGGRQQPQQQPSGNNRRGWNTTSQRYSNVIQPSSFSKSTPWGGSRDQEKPYFSSFDSGASTNRKEGFGLSENPFASLSPDEQKDEKKLLEGIVKDMEVWESSGQWMFSVYSPVKKKPNISGFTDISPEELRLEYHNFLTSNNLQSYLNSVQRLINQWRNRVNELKSLNISTKVALLSDVKDGVNQAAPAFGFGSSQAATFMSPGFPVNNSSSDNAQNFSFKTNSGFAAASSGSPAGFGSSPAFGAAASTSSGISTSAPAFGFGKPEVTSAASFSFKSPAASSFGSPGFSGLPASLATGPVRAPVAPAFGGGSSVAGFGSPGSHSHTAFSKPSSDTFGNSSISTSLSASSSIIATDNVLFTPRDKLTVEELEQFQSKKFTLGKIPLKPPPLELLNV
binds: [1] | [2] | [3]
